{"source": "patent US10106684B2", "about": "“Method for making Schiff base” (KING FAHD UNIVERSITY OF PETROLEUM AND MINERALS, priority 2016, dated 2018)", "key": {"[1]": {"experiment": "Fluorescence titration of compound 1 with Cu^2+ (Stern-Volmer plot, detection limit)", "assay_type": "binding", "method": "All of the absorption and emission studies were carried out in mixed aqueous solutions of water and methanol (4:1) containing HEPES buffer (10 mM, pH 7.4) at a concentration of 20 μM and 0.2 μM respectively. Emission studies were carried out by addition of 10 equiv of various biologically and non-biologically relevant metal cations to an aqueous-MeOH (4:1) solution of compound 1 at a concentration level of 0.2 μM and their complexation abilities were studies by fluorescence. […] Importantly, none of the other cations induced any such distinct emission shift or quenching (FIG. 7). […] Fluorescence titration of compound 1 with Cu^2+ was carried out in aqueous MeOH (4:1) solution at a concentration level of 0.2 μM. The addition of Cu^2+ to the solution of compound 1 caused a complete quenching of the fluorescent emission and the peak at 525 nm (Φ=0.32) is “switched off” when excited at 502 nm (FIG. 9). […]\nThus, it can be assumed that the quenching of the fluorescence of compound 1 by Cu^2+ ion is a static quenching mode due to the formation of a non-fluorescent complex in the ground state. […] From the Stern-Volmer linear plot (FIG. 14) the binding constant of compound 1 with Cu^2+ was calculated to be 1.0×10^7 L·mol^−1 (error limits≤10%)."}, "[2]": {"experiment": "Selectivity and tolerance study, fluorescence with different metal cations", "settings": "0.2 μM compound", "method": "All of the absorption and emission studies were carried out in mixed aqueous solutions of water and methanol (4:1) containing HEPES buffer (10 mM, pH 7.4) at a concentration of 20 μM and 0.2 μM respectively. Emission studies were carried out by addition of 10 equiv of various biologically and non-biologically relevant metal cations to an aqueous-MeOH (4:1) solution of compound 1 at a concentration level of 0.2 μM and their complexation abilities were studies by fluorescence. […] Importantly, none of the other cations induced any such distinct emission shift or quenching (FIG. 7). […] Fluorescence titration of compound 1 with Cu^2+ was carried out in aqueous MeOH (4:1) solution at a concentration level of 0.2 μM. The addition of Cu^2+ to the solution of compound 1 caused a complete quenching of the fluorescent emission and the peak at 525 nm (Φ=0.32) is “switched off” when excited at 502 nm (FIG. 9).\nTo evaluate the selectivity and tolerance of compound 1 for Cu^2+ over other metal cations, 10 equiv of the different metal cations were added to a 0.2 μM solution of compound 1. In the case of Cu^2+, the molecular fluorescence is quenched to a maximum level and therefore a high molecular sensitivity is attained. […] Fluorescent sensors for and with transition metals; John Wiley & Sons Ltd: Chichester, 1999. —incorporated herein by reference in its entirety]. […]"}}}
{"smiles": "Cn1ccnc1/C=N/N1C(=O)c2ccccc2C12c1ccc(O)cc1Oc1cc(O)ccc12", "note": "[compound 1, Fluorescein-N-methylimidazole conjugate]", "values": [{"measurement": "fluorescence quantum yield Φ of emission peak at 525 nm", "setting": "[1]; 0.2 μM, excited at 502 nm, aqueous MeOH (4:1)", "result": 0.32}, {"measurement": "detection limit for Cu^2+", "setting": "[1]; fluorescence, H2O:MeOH (4:1), HEPES 10 mM, pH 7.4, λex=502 nm", "result": 0.037, "unit": "µM"}, {"measurement": "fluorescence quenching by metal ions other than Cu^2+", "setting": "[2]; 10 equiv of metal cation", "result": "no appreciable quenching"}, {"measurement": "interference of other metal ions with the quenching by Cu^2+ (competitive binding)", "setting": "[2]; other metal ions 10.0 equiv, Cu^2+ 1.0 equiv", "result": "did not interfere"}]}
